According to the supplement of paper PMC10849652:
Some of the results follow.

By UniProt entry, the sequences of proteins in these tests, tags left out. Where a name states a change or a piece, a line headed by the entry shows the natural chain unless it says otherwise.
UniProt O00478: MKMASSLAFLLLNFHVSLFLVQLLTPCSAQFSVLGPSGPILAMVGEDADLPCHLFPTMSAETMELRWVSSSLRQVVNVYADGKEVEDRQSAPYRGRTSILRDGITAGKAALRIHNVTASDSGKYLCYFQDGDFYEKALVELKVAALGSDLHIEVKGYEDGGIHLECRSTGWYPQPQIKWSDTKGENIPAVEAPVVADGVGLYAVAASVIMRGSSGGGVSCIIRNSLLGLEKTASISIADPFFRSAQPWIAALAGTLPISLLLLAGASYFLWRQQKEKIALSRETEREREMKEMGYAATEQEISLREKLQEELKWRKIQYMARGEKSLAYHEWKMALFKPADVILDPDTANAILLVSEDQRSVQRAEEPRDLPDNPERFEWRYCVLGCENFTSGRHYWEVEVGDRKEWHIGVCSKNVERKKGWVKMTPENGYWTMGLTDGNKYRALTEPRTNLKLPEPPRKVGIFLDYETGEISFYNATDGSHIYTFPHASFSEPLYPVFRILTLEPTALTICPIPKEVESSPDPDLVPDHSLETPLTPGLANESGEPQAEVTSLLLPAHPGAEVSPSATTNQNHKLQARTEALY
UniProt Q9Y426: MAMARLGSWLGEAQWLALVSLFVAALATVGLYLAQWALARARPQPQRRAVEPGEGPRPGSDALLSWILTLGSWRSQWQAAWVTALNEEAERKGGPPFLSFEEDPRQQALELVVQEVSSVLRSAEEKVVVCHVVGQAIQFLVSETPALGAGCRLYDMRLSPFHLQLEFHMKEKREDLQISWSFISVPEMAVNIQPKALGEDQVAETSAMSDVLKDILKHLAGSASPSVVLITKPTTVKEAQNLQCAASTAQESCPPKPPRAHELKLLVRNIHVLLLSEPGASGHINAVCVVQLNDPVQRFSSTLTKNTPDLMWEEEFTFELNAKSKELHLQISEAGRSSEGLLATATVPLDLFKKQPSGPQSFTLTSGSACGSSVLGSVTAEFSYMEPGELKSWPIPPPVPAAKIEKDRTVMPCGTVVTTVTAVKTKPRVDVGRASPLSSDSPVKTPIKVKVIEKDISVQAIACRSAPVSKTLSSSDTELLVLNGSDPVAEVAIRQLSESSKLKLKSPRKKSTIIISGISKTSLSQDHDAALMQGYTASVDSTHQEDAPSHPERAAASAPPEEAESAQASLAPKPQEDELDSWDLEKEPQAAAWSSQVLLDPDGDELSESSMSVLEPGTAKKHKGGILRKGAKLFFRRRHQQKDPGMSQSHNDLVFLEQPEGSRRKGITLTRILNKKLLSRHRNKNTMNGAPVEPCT
UniProt Q9BSF0: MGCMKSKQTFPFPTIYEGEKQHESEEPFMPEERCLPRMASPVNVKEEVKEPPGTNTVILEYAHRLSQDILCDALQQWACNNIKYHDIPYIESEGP
UniProt Q9H9S4: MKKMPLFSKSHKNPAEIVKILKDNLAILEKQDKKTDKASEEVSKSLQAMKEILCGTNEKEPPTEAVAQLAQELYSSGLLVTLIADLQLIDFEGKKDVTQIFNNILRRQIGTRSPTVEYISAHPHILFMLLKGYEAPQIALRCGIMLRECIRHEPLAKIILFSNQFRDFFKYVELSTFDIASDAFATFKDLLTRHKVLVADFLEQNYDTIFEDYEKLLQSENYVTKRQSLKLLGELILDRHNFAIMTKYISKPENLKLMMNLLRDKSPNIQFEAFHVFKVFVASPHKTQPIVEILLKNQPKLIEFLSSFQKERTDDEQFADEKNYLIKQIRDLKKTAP
UniProt Q9GZU0: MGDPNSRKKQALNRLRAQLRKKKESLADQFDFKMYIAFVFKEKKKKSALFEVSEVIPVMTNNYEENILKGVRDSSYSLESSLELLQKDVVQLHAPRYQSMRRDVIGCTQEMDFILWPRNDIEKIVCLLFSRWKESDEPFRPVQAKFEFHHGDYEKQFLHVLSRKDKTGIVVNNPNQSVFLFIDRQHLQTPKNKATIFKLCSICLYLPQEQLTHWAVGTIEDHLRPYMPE
UniProt Q7Z4R8: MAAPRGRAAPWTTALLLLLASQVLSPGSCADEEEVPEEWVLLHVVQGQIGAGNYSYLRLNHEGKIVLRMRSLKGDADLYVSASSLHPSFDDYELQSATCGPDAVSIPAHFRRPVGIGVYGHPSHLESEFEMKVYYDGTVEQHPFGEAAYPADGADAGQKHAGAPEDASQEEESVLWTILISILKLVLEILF
UniProt Q9H6X5: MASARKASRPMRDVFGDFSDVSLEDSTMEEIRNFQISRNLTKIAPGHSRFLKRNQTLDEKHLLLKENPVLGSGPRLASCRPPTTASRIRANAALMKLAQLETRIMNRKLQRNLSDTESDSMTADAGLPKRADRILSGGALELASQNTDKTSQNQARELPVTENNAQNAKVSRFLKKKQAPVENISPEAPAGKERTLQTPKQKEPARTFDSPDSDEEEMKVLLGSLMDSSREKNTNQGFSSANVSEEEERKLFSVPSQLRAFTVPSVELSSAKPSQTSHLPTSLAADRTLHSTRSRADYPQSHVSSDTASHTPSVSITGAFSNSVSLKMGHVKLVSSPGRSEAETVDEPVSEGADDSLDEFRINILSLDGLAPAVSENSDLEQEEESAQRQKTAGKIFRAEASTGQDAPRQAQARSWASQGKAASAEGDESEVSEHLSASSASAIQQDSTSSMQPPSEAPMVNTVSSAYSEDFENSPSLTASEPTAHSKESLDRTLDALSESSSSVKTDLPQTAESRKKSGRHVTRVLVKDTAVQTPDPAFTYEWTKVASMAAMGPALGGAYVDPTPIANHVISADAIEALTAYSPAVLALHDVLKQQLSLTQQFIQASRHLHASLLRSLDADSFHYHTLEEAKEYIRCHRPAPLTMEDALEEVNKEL
UniProt Q5SQH8: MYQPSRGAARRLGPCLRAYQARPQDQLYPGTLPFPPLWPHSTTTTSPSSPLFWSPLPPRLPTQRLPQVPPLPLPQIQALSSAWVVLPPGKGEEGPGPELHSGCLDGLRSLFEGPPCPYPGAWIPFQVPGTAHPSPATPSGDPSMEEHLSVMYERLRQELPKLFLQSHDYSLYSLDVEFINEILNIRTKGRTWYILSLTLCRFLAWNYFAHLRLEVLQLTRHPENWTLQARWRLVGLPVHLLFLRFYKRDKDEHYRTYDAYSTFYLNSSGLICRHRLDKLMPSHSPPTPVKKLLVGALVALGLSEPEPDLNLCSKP
UniProt Q8N3J3: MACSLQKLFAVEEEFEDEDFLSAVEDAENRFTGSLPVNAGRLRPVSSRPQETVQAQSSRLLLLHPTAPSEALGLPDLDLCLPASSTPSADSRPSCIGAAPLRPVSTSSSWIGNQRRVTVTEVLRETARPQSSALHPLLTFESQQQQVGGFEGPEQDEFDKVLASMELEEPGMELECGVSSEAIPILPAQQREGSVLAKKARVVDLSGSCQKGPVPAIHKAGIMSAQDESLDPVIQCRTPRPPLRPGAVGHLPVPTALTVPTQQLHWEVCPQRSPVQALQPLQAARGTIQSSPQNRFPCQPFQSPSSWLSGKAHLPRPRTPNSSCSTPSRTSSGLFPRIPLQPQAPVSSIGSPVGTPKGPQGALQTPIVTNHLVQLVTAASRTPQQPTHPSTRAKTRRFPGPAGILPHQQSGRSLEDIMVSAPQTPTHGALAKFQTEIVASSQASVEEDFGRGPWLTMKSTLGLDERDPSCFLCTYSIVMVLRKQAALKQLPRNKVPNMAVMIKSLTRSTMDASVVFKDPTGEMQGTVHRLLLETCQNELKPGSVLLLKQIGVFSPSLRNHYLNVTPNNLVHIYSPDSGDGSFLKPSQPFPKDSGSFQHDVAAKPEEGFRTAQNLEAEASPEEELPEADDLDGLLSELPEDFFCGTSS
UniProt Q13137: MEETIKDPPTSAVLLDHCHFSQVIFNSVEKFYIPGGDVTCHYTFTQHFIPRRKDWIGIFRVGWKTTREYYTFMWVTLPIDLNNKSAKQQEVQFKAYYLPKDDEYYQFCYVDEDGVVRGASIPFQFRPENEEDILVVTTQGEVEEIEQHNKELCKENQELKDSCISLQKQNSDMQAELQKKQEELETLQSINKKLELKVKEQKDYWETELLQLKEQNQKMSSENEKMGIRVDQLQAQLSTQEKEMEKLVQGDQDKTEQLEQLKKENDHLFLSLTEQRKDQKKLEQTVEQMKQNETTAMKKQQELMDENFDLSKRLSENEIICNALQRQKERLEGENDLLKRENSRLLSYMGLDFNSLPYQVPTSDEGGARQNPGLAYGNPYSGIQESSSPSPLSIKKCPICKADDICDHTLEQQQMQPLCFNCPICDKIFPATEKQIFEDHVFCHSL
UniProt Q5U649: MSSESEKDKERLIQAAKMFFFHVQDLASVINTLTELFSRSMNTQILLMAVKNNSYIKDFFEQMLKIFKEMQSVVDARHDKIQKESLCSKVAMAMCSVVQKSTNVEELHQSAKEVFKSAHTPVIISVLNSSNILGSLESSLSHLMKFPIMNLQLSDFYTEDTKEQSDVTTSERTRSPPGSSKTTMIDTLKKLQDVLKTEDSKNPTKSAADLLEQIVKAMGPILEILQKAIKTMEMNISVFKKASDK
UniProt Q9BX69: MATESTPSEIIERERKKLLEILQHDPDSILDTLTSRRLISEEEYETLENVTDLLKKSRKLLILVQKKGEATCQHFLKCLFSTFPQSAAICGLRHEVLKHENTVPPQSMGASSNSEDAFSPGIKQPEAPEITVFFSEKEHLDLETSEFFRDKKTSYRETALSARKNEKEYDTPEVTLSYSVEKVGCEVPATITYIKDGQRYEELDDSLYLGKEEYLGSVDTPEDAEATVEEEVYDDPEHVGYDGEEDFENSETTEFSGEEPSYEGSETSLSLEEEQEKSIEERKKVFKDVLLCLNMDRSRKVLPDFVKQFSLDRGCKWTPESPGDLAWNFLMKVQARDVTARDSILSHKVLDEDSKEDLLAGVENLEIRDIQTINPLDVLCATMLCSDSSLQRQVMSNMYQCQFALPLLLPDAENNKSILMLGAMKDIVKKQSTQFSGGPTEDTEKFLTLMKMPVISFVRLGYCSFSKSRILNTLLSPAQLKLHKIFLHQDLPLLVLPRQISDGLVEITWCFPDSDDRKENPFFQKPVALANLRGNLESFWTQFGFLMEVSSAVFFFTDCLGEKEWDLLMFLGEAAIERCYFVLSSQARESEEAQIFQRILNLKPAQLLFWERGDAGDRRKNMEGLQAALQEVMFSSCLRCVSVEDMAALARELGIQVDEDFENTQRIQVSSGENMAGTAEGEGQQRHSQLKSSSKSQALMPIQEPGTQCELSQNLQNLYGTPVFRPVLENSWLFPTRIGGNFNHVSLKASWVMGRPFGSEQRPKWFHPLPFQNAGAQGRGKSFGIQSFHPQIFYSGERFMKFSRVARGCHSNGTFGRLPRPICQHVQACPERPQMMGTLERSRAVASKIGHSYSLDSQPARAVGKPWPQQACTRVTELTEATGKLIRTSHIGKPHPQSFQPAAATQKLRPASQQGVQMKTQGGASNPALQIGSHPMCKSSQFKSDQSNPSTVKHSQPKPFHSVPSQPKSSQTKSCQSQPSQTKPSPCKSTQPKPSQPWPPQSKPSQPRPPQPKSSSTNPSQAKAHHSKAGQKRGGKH
UniProt Q9BTV7: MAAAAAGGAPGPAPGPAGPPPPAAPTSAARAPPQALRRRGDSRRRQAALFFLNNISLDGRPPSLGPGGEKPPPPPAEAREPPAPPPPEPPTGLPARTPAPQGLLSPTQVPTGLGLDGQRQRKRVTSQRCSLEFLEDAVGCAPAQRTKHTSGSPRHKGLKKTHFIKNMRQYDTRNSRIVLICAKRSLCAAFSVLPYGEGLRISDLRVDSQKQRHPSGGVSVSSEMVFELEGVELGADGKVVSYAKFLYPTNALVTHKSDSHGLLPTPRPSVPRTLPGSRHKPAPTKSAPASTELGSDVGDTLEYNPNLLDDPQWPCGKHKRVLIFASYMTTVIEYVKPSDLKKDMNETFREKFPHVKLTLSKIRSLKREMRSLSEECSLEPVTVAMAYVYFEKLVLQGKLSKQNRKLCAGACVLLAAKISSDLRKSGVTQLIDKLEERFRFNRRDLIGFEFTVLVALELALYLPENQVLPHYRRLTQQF
UniProt Q96MH7: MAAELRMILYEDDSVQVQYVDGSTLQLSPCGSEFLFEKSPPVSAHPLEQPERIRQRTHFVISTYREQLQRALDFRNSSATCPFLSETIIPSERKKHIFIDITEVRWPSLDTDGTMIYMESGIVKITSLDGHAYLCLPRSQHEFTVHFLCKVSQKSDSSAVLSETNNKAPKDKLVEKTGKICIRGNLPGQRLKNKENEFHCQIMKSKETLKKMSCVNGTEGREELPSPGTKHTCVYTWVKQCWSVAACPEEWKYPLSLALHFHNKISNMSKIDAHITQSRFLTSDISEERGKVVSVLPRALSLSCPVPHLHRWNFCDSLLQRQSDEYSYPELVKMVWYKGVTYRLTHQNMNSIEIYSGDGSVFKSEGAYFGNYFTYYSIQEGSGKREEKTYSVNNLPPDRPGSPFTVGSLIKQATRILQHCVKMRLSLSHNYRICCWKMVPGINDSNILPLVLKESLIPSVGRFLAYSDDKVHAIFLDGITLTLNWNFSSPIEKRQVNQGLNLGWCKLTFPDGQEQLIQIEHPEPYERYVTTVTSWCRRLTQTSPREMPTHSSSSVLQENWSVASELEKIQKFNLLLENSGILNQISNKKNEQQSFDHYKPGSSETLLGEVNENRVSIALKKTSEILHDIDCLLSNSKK

Columns and labels:
Test in all cases: log2 fold change, soluble protein after heating vs DMSO (PISA); higher = thermal stabilisation; K562 lysate, 10 uM; active = over 0.2 and 3.5 SD of the protein, either way, in both replicates (recomputed)
[1] = compound: CN1CC[C@H](c2c(O)cc(O)c3c(=O)cc(-c4ccccc4Cl)oc23)[C@H](O)C1 [alvocidib]
How it was run: (§1)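 Following dounce homogenisation of K562 pellets in PBS pH 7.4 with 1 mM MgCl2, crude extract at 1 mg/mL protein was incubated for 30 min with 10 μM compound. Aliquots were then heated for 3 min over 48°C-58°C and pooled, NP-40 was added to 0.5% at 4°C, and soluble protein was recovered as the supernatant at 21,000xg for 90 min. Channel-sum-equalised TMTpro 16plex LC-MS/MS quantified this protein. Each value, from duplicates, is a log-two fold change in thermal stability relative to solvent controls.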

[2] = compound: CN1CCc2c(c3ccccc3n2Cc2ccc(C(=O)NO)cc2)C1 [Tubastatin A]
How it was run: as §1

[3] = compound: CNC(=O)C1=CC=CC=C1NC2=NC(=NC=C2Cl)NC3=C(C=C(C=C3)N4CCOCC4)OC
How it was run: as §1

[4] = compound: CNC(=O)c1ccc(Nc2ncc(C(F)(F)F)c(NCc3nccnc3N(C)S(C)(=O)=O)n2)cc1 [defactinib]
How it was run: as §1

[5] = compound: CNc1nc(-c2ccc3c(N)n[nH]c3c2)cc(N2C[C@@H](C(=O)NC3CCCCC3)CC[C@H]2C)n1
How it was run: as §1

[6] = compound: COc1cc(Nc2ncc3c(n2)-c2ccc(Cl)cc2C(c2c(F)cccc2OC)=NC3)ccc1C(=O)O [alisertib]
How it was run: as §1

[7] = compound: COc1cc2ncnc(Nc3ccc(F)c(Cl)c3)c2cc1OCCCN1CCOCC1 [gefitinib]
How it was run: as §1

[8] = compound: CS(=O)(=O)N1CCN(Cc2cc3nc(-c4cccc5[nH]ncc45)nc(N4CCOCC4)c3s2)CC1 [pictilisib]
How it was run: as §1

[9] = compound: C[C@@H](Oc1cc(-c2cnn(C3CCNCC3)c2)cnc1N)c1c(Cl)ccc(F)c1Cl [crizotinib]
How it was run: as §1

[10] = compound: C[C@H](C1=CC=C(C=C1)C(=O)NC2=C3C=CNC3=NC=C2)N
How it was run: as §1

[11] = compound: C[C@H](Nc1ncnc2nc[nH]c12)c1cc2cccc(Cl)c2c(=O)n1-c1ccccc1 [duvelisib]
How it was run: as §1

[12] = compound: Cc1cc(Nc2cc(CN3CCOCC3)c3nc(C)c(Cc4ccc(Cl)cc4F)n3n2)n[nH]1 [gandotinib]
How it was run: as §1

[13] = compound: Cc1ccc(-n2nc(C(C)(C)C)cc2NC(=O)Nc2ccc(OCCN3CCOCC3)c3ccccc23)cc1 [doramapimod]
How it was run: as §1

[14] = compound: Cc1ccc(NC(=O)c2ccc(CN3CC[C@H](N(C)C)C3)c(C(F)(F)F)c2)cc1Nc1nccc(-c2cncnc2)n1 [bafetinib]
How it was run: as §1

[15] = compound: Cc1cccc(CC(=O)N2CCc3c2ccc(-c2cn(C)c4ncnc(N)c24)c3F)n1
How it was run: as §1

[16] = compound: COC(=O)N[C@@H](C)CNc1nccc(-c2cn(C(C)C)nc2-c2cc(Cl)cc(NS(C)(=O)=O)c2F)n1 [encorafenib]
How it was run: as §1

[17] = compound: COC(=O)[C@H](CCSC)NC(=O)C1=C(C=C(C=C1)NC[C@H](CS)N)C2=CC=CC=C2
How it was run: as §1

[18] = compound: COc1cc2nc(-c3cc(F)ccc3O)nc(N[C@@H]3CNC[C@H]3C(C)(C)O)c2cc1OC
How it was run: as §1

[19] = compound: CS(=O)(=O)CCNCc1ccc(-c2ccc3ncnc(Nc4ccc(OCc5cccc(F)c5)c(Cl)c4)c3c2)o1 [lapatinib]
How it was run: as §1

[20] = compound: Cc1cc(Nc2cc(N3CCN(C)CC3)nc(Sc3ccc(NC(=O)C4CC4)cc3)n2)n[nH]1 [tozasertib]
How it was run: as §1

Measured: log2 fold change

BTN3A3 (UniProt O00478)
inactive: [1] -0.107 | [2] -0.062 | [3] -0.192 | [4] 0.228 | [5] -0.227 | [6] -0.04 | [7] 0.165 | [8] -0.051 | [9] 0.05 | [10] -0.029 | [11] 0.074 | [12] 0.019 | [13] 0.331 | [14] -0.063 | [15] 0.089

CAPN1 (UniProt E9PLX0)
inactive: [1] -0.021 | [2] 0.311 | [4] -0.427 | [16] -0.17 | [17] -0.101 | [6] -0.058 | [18] -0.074 | [7] 0.057 | [19] -0.084 | [9] 0.033 | [10] 0.157 | [12] 0.033 | [20] -0.064 | [13] -0.086 | [15] 0.13

C8orf88 (UniProt P0DMB2)
inactive: [1] 0.072 | [2] -0.064 | [3] 0.07 | [5] -0.015 | [8] 0.028 | [9] 0.038 | [10] 0.054 | [11] 0.058 | [12] -0.017 | [13] -0.004 | [14] -0.016 | [15] -0.095

C12orf73 (UniProt Q69YU5)
inactive: [1] -0.005 | [2] 0.081 | [3] -0.014 | [5] 0.055 | [6] 0.034 | [18] -0.041 | [7] -0.044 | [19] 0.099 | [8] -0.019 | [9] 0.019 | [10] 0.008 | [11] 0.055 | [12] 0.001 | [13] 0 | [14] 0.087 | [15] -0.034

C18orf21 (UniProt Q32NC0)
inactive: [1] 0.004 | [2] -0.119 | [3] -0.028 | [5] -0.017 | [6] -0.077 | [18] -0.172 | [7] -0.016 | [19] -0.153 | [8] -0.071 | [9] -0.005 | [10] -0.005 | [11] 0 | [12] -0.063 | [13] -0.086 | [14] 0.046 | [15] 0.111

C2CD2 (UniProt Q9Y426)
inactive: [1] -0.068 | [2] -0.008 | [3] -0.003 | [5] 0.139 | [16] 0.025 | [17] -0.166 | [8] -0.061 | [9] -0.087 | [10] 0.012 | [11] 0.098 | [12] -0.044 | [20] 0.131 | [13] 0.17 | [14] -0.016 | [15] 0.009

C19orf57 (UniProt Q0VDD7)
inactive: [1] 0.116 | [4] 0.023 | [5] 0.097 | [10] 0.17 | [11] 0.06 | [12] -0.135 | [15] -0.092

C17orf80 (UniProt Q9BSJ5)
inactive: [1] -0.077 | [3] 0.072 | [4] -0.071 | [18] 0.009 | [19] 0.029 | [9] -0.07 | [10] -0.117 | [12] 0.101 | [13] -0.025 | [15] 0.192

C2orf88 (UniProt Q9BSF0)
inactive: [1] 0.068 | [2] -0.136 | [9] 0.051 | [10] 0.051 | [12] -0.037 | [13] -0.069 | [15] -0.218

CAB39L (UniProt Q9H9S4)
inactive: [1] -0.041 | [2] -0.048 | [3] -0.001 | [4] 0.013 | [5] 0.05 | [6] -0.034 | [18] 0.076 | [7] 0.02 | [19] -0.017 | [8] -0.048 | [9] -0.092 | [10] -0.005 | [11] 0.079 | [12] -0.037 | [13] -0.008 | [14] -0.008 | [15] 0.057

C6orf62 (UniProt Q9GZU0)
inactive: [1] -0.105 | [4] -0.068 | [5] -0.002 | [9] -0.239 | [10] 0.233 | [11] -0.2 | [12] -0.16 | [13] 0.007 | [15] -0.299

CACNA1C isoform 2 (UniProt Q13936)
inactive: [1] -0.152 | [3] 0.113 | [18] 0.079 | [19] 0.001 | [10] -0.412 | [12] 0.151 | [15] -0.147

C6orf120 (UniProt Q7Z4R8)
inactive: [1] 0.096 | [3] 0.031 | [5] 0.066 | [18] -0.026 | [19] -0.113 | [8] 0.032 | [10] -0.03 | [11] -0.036 | [12] -0.037 | [14] 0.045 | [15] -0.169

CAP1 (UniProt Q5T0R8)
inactive: [1] -0.02 | [3] 0.35 | [18] 0.129 | [19] -0.202 | [10] -0.188 | [12] -0.082 | [15] 0.027

C19orf12 (UniProt Q9NSK7)
inactive: [2] 0.031 | [5] -0.006 | [16] 0.036 | [17] -0.03 | [6] 0.003 | [18] 0.016 | [7] -0.066 | [19] -0.018 | [9] -0.102 | [11] -0.049 | [20] 0.013 | [13] 0.157

Retrieved one by one from the entries so far, two records:
CACNA1C isoform 2 (UniProt Q13936)
inactive: [1] -0.152 | [3] 0.113 | [18] 0.079 | [19] 0.001 | [10] -0.412 | [12] 0.151 | [15] -0.147

BTN3A3 (UniProt O00478)
inactive: [1] -0.107 | [2] -0.062 | [3] -0.192 | [4] 0.228 | [5] -0.227 | [6] -0.04 | [7] 0.165 | [8] -0.051 | [9] 0.05 | [10] -0.029 | [11] 0.074 | [12] 0.019 | [13] 0.331 | [14] -0.063 | [15] 0.089

More entries follow:

C19orf44 (UniProt Q9H6X5)
inactive: [2] -0.304 | [6] 0.037 | [7] 0.119

C6orf136 isoform 4 (UniProt Q5SQH8)
inactive: [2] -0.145 | [3] 0.048 | [4] 0.046 | [5] 0.259 | [16] -0.102 | [17] 0.035 | [18] -0.01 | [19] 0 | [11] 0.008 | [20] -0.004

C1R (UniProt P00736)
inactive: [18] 0.086 | [19] 0

CAMKMT (UniProt Q7Z624)
inactive: [2] -0.092 | [5] 0.003 | [6] -0.023 | [18] -0.076 | [7] -0.188 | [19] -0.027 | [11] 0

C17orf53 (UniProt Q8N3J3)
inactive: [3] -0.083 | [5] 0.067 | [9] -0.056 | [11] 0.221 | [13] -0.014

CALCOCO2 isoform 5 (UniProt Q13137)
inactive: [1] -0.11 | [6] -0.106 | [7] 0.183 | [10] -0.509 | [12] 0.102 | [15] 0.273

C1RL (UniProt Q9NZP8)
inactive: [1] 0.017 | [16] 0.114 | [17] -0.096 | [10] -0.067 | [12] -0.032 | [20] -0.107 | [15] -0.051

CA1 (UniProt E5RIF9)
inactive: [1] -0.199 | [16] -0.21 | [17] 0.09 | [10] -0.099 | [12] -0.011 | [20] -0.098 | [15] -0.004

C12orf60 (UniProt Q5U649)
inactive: [2] 0.006 | [3] 0.05 | [4] -0.07 | [5] 0.022 | [6] -0.126 | [7] 0.02 | [9] 0.054 | [11] 0.063 | [13] -0.178

C4orf46 (UniProt Q504U0)
inactive: [2] -0.274 | [3] 0.152 | [5] -0.153 | [11] -0.189

CARD6 (UniProt Q9BX69)
inactive: [4] 0.087 | [5] 0.051 | [6] -0.004 | [7] -0.288 | [9] -0.421 | [11] -0.053 | [13] 0.134

CABLES2 (UniProt Q9BTV7)
inactive: [4] 0.078 | [16] -0.019 | [17] 0.015 | [18] 0.131 | [19] -0.03 | [8] 0.063 | [9] -0.023 | [20] 0.064 | [13] 0.172 | [14] -0.046

C5orf34 (UniProt Q96MH7)
inactive: [3] -0.18 | [4] -0.251 | [5] -0.056 | [16] 0.138 | [17] 0.074 | [11] 0.027 | [20] 0.049

C12orf4 (UniProt Q9NQ89)
inactive: [3] -0.218 | [16] -0.06 | [17] 0.176 | [18] 0.165 | [19] -0.159 | [8] -0.022 | [9] -0.003 | [20] 0.042 | [13] 0.027 | [14] -0.014
